PubChem BioAssay AID1224826 | NIAID – 2016

Assay: 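Knock-downs that raise or lower Tnf reporter signal after endotoxin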 (primary screen)
Cells: RAW264.7 G9 macrophages from mouse bearing reporters for p65 (GFP) and the Tnf promoter (mCherry)
Reagents: siRNA pool against mouse genes, 100 nM
Duration: 16 h of LPS stimulation, after 2 days of siRNA transfection
Conditions: bacterial lipopolysaccharide (Salmonella minnesota R595), 10 ng/ml
Measured: 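Imaged Tnf reporter mCherry in nuclei, minus background, normalised per plate to the median and expressed as robust z-scores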
Reading the numbers: Tnf reporter robust z-score: higher = stronger Tnf promoter reporter signal after LPS; Tnf reporter intensity: higher = stronger Tnf promoter reporter signal
Call rule: 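a well counts as active at a score of -1.3 or below (Tlr4 knock-down control median) or above 3 (raised signal); controls and wells holding fewer than 50 cells are excluded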
Calls: active = Tnf reporter clearly lowered or raised; inactive = no clear change in Tnf reporter
The whole screen tested about 17,000 reagents; shown is an unselected part. About 1,110 of them (6.6%) count as active. 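Active means lowered or raised reporter signal; replicate intensities are raw and not normalised per plate.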

target gene | PubChem SID | Tnf reporter robust z-score | fewer than 50 cells in well | Tnf reporter intensity, replicate 1 | Tnf reporter intensity, replicate 2 | activity call
Heatr5a | SID315481323 | -1.76 | enough cells in well | 93.2 | 52.4 | active
Timm9 | SID315470742 | 1.04 | enough cells in well | 157 | 81.4 | inactive
Cdca8 | SID315470953 | – | fewer than 50 cells per well; well left out of calls | 24.5 | 75.9 | inactive
Arhgap35 | SID315479019 | 0.37 | enough cells in well | 229 | 184 | inactive
Crygf | SID315466151 | -1.16 | enough cells in well | 121 | 104 | inactive
Ms4a4b | SID315472008 | -1.41 | enough cells in well | 128 | 50.8 | active
Gpalpp1 | SID315473046 | 1.2 | enough cells in well | 337 | 102 | inactive
Cnih1 | SID315466028 | 0.01 | enough cells in well | 166 | 176 | inactive
Vmn1r23 | SID315477286 | 0.86 | enough cells in well | 159 | 111 | inactive
Susd3 | SID315472365 | -0.77 | enough cells in well | 180 | 61.2 | inactive
Atg5 | SID315465454 | -0.64 | enough cells in well | 152 | 109 | inactive
Kctd15 | SID315479060 | -0.54 | enough cells in well | 188 | 86.1 | inactive
Nol6 | SID315478758 | 2.21 | enough cells in well | 361 | 236 | inactive
Slc39a11 | SID315473905 | – | fewer than 50 cells per well; well left out of calls | 34.9 | 62 | inactive
Rdh14 | SID315476471 | 1.98 | enough cells in well | 211 | 216 | inactive
Slc35c1 | SID315478629 | -1.84 | enough cells in well | 76 | 59.7 | active
Rbp1 | SID315468919 | 2.37 | enough cells in well | 248 | 212 | inactive
Or10aa3 | SID315480362 | 0.48 | enough cells in well | 102 | 137 | inactive
Cartpt | SID315470551 | 0.71 | enough cells in well | 185 | 193 | inactive
Fkbp11 | SID315472227 | 1.08 | enough cells in well | 362 | 186 | inactive
Hps6 | SID315469063 | 0.85 | enough cells in well | 277 | 268 | inactive
Epas1 | SID315466511 | 0.17 | enough cells in well | 240 | 246 | inactive
Arl4a | SID315465509 | -1.26 | enough cells in well | 103 | 89.8 | inactive
Nck2 | SID315468112 | -0.14 | enough cells in well | 294 | 160 | inactive
Mat1a | SID315465407 | 0.04 | enough cells in well | 279 | 198 | inactive
Btbd9 | SID315478358 | -1.34 | enough cells in well | 49.2 | 86.2 | active
Or2p2 | SID315480200 | 1.1 | enough cells in well | 356 | 126 | inactive
Vstm2b | SID315471864 | – | fewer than 50 cells per well; well left out of calls | 132 | 80.4 | inactive
Golm1 | SID315476481 | -0.3 | enough cells in well | 231 | 141 | inactive
Acbd4 | SID315472856 | 2.07 | enough cells in well | 398 | 272 | inactive
5730453H04RIK | SID315482016 | -0.96 | enough cells in well | 128 | 91.1 | inactive
5330430C04Rik | SID315475555 | -0.43 | enough cells in well | 184 | 94.9 | inactive
Dcps | SID315473779 | -0.21 | enough cells in well | 187 | 83.1 | inactive
Spata16 | SID315474147 | – | fewer than 50 cells per well; well left out of calls | 153 | 64.7 | inactive
2900092C05Rik | SID315474672 | – | fewer than 50 cells per well; well left out of calls | 140 | 75.4 | inactive
Adcy8 | SID315465301 | 1.02 | enough cells in well | 327 | 204 | inactive
Mcpt1 | SID315467868 | 0.32 | enough cells in well | 156 | 208 | inactive
Kif26b | SID315479537 | -0.61 | enough cells in well | 160 | 119 | inactive
Kif26b | SID315480835 | – | fewer than 50 cells per well; well left out of calls | 294 | 215 | inactive
Ap4m1 | SID315465445 | 0.38 | enough cells in well | 225 | 154 | inactive
Nxph3 | SID315476410 | 0.59 | enough cells in well | 232 | 174 | inactive
Slc15a5 | SID315481001 | -0.32 | enough cells in well | 163 | 167 | inactive
Gstm1 | SID315467058 | -0.8 | enough cells in well | 203 | 104 | inactive
Dapk2 | SID315466263 | -0.33 | enough cells in well | 177 | 59.6 | inactive
Gtpbp2 | SID315471357 | -0.13 | enough cells in well | 229 | 161 | inactive
Khdc1a | SID315481735 | -0.42 | enough cells in well | 138 | 150 | inactive
Snx1 | SID315471536 | – | fewer than 50 cells per well; well left out of calls | 43.5 | 37.2 | inactive
Atp2b3 | SID315481375 | -0.86 | enough cells in well | 126 | 112 | inactive
Thap1 | SID315474781 | 1.51 | enough cells in well | 175 | 93.1 | inactive
Ncs1 | SID315466748 | 0.57 | enough cells in well | 309 | 153 | inactive
Igfbp2 | SID315467410 | 0.54 | enough cells in well | 316 | 191 | inactive
Tbc1d10a | SID315476386 | – | fewer than 50 cells per well; well left out of calls | 137 | 85.1 | inactive
Olfml2a | SID315479565 | – | fewer than 50 cells per well; well left out of calls | 165 | 45.7 | inactive
Arap3 | SID315476572 | – | fewer than 50 cells per well; well left out of calls | 166 | 87.5 | inactive
Alyref2 | SID315471337 | -0.77 | enough cells in well | 94.7 | 94.3 | inactive
Plekho1 | SID315472907 | 1.04 | enough cells in well | 343 | 93.3 | inactive
Dguok | SID315470582 | – | fewer than 50 cells per well; well left out of calls | 125 | 80.3 | inactive
Coro2b | SID315479253 | -0.26 | enough cells in well | 190 | 210 | inactive
